Results on 14 substances are retold here after article PMC10217356.

Chains of the proteins cited; added tags and fusions are not shown. Lines headed by an entry give the natural chain unless they say otherwise; changes in a name come on top.
UniProt Q31LN3: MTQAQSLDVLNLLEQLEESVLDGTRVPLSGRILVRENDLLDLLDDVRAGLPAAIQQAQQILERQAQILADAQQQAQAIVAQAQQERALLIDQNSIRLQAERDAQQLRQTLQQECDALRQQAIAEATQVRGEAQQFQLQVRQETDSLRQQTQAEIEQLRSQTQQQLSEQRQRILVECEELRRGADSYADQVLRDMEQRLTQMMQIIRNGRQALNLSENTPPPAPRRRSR
UniProt Q31N73: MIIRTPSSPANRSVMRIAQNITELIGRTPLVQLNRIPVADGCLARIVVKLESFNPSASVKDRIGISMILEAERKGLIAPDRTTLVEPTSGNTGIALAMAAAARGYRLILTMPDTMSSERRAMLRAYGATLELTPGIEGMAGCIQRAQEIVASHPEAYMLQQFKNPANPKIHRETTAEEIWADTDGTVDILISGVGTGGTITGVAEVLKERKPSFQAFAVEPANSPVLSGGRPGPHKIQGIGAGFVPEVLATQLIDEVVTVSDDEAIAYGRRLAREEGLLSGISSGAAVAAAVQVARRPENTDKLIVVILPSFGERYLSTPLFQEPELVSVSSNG
UniProt Q31LV5: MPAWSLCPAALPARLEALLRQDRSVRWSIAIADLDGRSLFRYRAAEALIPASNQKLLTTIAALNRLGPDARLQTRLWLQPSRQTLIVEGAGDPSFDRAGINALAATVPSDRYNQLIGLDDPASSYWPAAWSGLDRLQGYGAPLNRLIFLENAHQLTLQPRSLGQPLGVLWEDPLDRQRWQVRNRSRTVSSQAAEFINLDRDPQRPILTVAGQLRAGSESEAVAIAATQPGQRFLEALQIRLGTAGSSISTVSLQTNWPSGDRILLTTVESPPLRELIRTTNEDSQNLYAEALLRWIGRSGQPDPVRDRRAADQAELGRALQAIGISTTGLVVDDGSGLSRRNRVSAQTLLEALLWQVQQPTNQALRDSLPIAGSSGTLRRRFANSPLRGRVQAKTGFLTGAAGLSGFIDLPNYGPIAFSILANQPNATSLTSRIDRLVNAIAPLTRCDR
UniProt Q55024: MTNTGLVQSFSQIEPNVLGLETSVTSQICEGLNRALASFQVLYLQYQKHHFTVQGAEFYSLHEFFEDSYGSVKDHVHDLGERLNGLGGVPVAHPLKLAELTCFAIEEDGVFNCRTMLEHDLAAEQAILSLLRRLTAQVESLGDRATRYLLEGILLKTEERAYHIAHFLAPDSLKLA
UniProt Q93AK0: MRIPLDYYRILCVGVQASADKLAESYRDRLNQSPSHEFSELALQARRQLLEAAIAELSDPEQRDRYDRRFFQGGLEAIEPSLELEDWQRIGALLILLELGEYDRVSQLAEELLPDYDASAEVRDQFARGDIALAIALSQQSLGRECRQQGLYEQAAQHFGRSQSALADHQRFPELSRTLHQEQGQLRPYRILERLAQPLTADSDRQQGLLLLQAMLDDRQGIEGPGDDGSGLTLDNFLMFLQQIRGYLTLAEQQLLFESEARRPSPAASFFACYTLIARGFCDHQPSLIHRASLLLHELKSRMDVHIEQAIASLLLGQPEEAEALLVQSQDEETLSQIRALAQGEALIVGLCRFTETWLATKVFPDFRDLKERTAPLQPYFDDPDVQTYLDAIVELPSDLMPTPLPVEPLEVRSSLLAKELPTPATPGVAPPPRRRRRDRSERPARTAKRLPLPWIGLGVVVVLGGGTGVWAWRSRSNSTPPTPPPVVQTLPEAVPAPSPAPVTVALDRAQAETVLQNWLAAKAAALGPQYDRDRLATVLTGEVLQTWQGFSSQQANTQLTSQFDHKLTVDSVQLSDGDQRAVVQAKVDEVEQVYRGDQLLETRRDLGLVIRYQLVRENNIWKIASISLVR
UniProt Q31M73: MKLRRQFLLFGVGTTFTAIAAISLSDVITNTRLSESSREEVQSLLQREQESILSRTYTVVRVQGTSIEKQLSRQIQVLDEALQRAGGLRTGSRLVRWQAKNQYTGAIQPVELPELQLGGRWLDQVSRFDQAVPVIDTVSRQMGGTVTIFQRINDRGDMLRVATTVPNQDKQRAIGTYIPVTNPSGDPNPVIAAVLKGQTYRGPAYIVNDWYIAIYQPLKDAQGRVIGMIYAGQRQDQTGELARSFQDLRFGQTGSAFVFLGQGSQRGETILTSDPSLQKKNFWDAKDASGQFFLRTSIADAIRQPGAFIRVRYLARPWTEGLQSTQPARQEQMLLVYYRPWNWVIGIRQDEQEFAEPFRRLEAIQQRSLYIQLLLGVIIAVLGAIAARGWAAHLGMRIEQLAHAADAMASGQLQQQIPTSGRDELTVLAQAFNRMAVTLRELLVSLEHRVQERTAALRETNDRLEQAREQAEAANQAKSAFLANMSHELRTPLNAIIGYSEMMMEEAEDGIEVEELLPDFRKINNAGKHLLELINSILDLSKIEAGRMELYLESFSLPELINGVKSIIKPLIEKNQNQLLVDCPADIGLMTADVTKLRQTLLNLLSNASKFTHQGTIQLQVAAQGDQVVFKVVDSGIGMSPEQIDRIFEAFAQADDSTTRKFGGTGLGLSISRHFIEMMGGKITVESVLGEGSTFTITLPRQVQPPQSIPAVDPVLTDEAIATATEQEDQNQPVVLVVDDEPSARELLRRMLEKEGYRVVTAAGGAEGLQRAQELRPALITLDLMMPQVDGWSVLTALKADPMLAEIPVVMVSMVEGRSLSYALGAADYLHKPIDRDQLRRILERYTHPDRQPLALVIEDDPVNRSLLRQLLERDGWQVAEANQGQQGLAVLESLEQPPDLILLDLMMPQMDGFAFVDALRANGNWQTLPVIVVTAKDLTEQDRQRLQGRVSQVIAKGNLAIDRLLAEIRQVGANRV
UniProt Q31RR7: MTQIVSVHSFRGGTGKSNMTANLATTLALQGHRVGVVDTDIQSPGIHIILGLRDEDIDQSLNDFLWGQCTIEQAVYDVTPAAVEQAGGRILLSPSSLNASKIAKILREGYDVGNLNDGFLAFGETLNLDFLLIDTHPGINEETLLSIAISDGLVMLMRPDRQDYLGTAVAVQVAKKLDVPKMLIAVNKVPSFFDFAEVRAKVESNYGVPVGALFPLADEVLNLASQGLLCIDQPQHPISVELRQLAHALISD
UniProt Q31PU3: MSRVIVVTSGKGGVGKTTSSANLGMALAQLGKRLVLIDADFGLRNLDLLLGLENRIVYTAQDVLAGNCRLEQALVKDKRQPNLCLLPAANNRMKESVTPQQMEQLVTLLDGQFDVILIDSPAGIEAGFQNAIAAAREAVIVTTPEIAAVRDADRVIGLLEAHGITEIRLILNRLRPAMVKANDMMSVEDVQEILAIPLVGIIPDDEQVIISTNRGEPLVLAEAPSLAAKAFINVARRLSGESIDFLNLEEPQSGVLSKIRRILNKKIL
UniProt Q31K18: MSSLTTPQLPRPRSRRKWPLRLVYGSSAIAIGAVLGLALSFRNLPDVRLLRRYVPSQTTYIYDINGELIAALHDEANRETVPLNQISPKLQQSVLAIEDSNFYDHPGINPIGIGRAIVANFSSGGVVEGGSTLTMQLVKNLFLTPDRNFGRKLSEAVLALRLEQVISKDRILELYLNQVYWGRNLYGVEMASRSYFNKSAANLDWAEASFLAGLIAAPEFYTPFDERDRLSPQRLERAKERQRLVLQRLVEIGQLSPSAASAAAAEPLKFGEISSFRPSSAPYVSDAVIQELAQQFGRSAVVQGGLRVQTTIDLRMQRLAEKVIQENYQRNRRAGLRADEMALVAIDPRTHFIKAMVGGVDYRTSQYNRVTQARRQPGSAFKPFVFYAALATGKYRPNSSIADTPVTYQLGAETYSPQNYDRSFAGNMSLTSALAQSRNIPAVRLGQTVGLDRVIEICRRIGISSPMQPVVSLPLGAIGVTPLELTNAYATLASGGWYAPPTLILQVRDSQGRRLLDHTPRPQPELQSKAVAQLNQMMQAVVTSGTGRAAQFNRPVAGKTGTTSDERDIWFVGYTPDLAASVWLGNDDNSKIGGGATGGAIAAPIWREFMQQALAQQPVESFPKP
UniProt Q31KE5: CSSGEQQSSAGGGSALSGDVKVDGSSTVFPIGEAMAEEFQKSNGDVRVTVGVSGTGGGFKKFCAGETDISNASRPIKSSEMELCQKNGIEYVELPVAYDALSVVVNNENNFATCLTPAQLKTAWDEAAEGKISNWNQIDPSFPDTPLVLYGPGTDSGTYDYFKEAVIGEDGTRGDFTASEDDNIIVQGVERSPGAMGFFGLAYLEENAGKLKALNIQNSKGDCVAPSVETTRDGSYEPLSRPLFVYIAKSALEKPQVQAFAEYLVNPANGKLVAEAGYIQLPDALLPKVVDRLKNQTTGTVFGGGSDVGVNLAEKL
UniProt Q31MB0: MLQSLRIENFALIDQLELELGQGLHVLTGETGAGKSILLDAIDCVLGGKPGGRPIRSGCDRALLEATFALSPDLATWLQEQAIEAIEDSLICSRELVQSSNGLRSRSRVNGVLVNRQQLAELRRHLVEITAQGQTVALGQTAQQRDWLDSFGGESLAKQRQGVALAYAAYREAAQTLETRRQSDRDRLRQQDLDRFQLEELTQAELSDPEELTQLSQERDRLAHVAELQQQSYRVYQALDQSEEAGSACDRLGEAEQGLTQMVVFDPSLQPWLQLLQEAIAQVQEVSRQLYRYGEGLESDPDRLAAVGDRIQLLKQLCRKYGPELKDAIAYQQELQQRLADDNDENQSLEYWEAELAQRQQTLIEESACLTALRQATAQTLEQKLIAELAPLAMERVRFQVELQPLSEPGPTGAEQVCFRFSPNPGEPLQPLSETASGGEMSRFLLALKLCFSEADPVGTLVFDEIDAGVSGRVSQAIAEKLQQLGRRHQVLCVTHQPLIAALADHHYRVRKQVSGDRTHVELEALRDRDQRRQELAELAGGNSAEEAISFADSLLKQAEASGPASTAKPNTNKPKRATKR
UniProt Q31RU6: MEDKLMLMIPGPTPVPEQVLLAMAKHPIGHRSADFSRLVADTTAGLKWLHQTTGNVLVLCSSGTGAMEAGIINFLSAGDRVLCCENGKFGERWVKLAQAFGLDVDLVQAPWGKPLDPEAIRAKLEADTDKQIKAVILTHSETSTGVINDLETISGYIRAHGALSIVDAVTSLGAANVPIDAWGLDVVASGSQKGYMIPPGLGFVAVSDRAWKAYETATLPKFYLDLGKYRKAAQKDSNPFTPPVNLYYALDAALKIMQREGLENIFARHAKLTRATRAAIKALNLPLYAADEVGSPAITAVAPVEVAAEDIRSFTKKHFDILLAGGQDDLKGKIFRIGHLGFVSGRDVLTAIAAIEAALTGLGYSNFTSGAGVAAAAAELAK
UniProt Q31N35: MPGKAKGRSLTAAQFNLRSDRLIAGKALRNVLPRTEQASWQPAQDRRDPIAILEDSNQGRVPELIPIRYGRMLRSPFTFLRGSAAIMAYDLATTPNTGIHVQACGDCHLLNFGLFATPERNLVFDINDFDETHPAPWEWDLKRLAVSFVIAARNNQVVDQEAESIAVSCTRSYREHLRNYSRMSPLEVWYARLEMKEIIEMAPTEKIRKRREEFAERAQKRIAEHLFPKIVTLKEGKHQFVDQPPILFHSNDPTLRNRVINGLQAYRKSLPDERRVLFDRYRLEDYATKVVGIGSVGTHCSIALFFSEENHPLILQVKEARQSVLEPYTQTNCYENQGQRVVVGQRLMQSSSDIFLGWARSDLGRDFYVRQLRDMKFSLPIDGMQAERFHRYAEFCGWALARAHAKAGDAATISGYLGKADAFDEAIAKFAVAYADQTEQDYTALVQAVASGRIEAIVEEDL
UniProt Q31PH9: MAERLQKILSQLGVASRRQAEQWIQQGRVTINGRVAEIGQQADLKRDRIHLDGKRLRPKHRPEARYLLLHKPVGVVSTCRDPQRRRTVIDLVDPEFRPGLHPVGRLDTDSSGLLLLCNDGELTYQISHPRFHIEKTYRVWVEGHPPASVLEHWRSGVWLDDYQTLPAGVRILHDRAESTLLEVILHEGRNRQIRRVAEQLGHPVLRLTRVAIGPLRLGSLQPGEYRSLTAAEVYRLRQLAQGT

No constants are given. Whether binding was seen depends on the method and setting. In cells and extracts the contact can be indirect. A yes stands for co-enrichment or nearness to the bait. Other partners may have been found. Where a sequence is shown, tags or fusion partners need not be part of it.

This test concerns the target T1, FtsZ-GFP (Synechococcus elongatus PCC7942) (UniProt O85785).
T1 sequence: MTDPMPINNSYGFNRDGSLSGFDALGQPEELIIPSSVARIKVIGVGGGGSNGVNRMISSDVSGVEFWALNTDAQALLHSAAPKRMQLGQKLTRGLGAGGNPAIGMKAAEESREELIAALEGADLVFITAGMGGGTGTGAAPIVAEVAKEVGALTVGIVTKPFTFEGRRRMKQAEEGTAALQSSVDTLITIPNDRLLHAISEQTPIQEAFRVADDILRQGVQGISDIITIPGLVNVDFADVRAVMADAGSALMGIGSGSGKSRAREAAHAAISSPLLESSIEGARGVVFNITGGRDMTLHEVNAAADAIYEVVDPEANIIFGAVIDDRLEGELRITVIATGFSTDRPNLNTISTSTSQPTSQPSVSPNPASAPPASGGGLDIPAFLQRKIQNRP
The experiment in a line: affinity purification with mass spectrometry; FtsZ-GFP as bait; total protein extracts (4 mg/IP) of S. elongatus cells of the exponential, stationary and late stationary phase; anti-GFP antibody-coupled magnetic beads, trypsin digest in column, LC-MS/MS; non-antibody and GFP negative controls; three repetitions.
Consider CDV3 (from UniProt Q31LN3), for which the binding entry is on record as “binds”.
For Cystein synthase (from UniProt Q31N73), the binding result is “binds”.
As for “D-Ala-D-Ala carboxypeptidase (from UniProt Q31LV5)”, the binding entry is “binds”.
For the substance “DNA protect. during starvation (from UniProt Q55024)”, the binding result is reported as “binds”.
For the substance Ftn2 (from UniProt Q93AK0), the binding entry is “binds”.
On to His kinase (from UniProt Q31M73), for which the binding result was “binds”.
Regarding MinD2 (from UniProt Q31RR7), the binding result was “binds”.
With MinD (from UniProt Q31PU3), the binding result is “binds”.
For the substance “Penicillin-binding prot 1A (from UniProt Q31K18)”, the binding result is reported as “binds”.
Consider “Phosphate binding protein (from UniProt Q31KE5)”, for which the binding result is reported as “binds”.
Regarding RecN DNA repair (from UniProt Q31MB0), the binding entry is recorded as “binds”.
In the case of “Ser-glyoxylate transaminase (from UniProt Q31RU6)” it was “binds”; in that of Unchar. prot (from UniProt Q31N35), “binds”; in that of “rib. pseudouridine synth (from UniProt Q31PH9)”, “binds”.
